PubChem BioAssay AID1259424, University of Nebraska Medical Center – 2018

- Purpose: 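Seek colon cancer survival genes behaving like KSR1, using a six-gene signature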 (primary screen)
- System: human HCT116 colon cancer cells
- Reagent: siRNA pool against human genes, 50 nM
- Measurement: 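Log2 levels of six mRNAs (branched-DNA multiplex), adjusted by two reference genes and the non-targeting median, then scored against the average KSR1 knockdown pattern as Pearson r and euclidean distance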
- Scale: mean correlation with KSR1 profile and KSR1 correlation: higher = expression change more like KSR1 knockdown; mean distance from KSR1 profile: higher = expression change less like KSR1 knockdown
Shown is an unselected part of about 14,000 reagents. 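Higher correlation or smaller distance means closer resemblance to KSR1 loss; control wells, including KSR1 knockdowns, recur on many plates.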 The numbers tell different reagents against one gene apart. Not stated in the record: the time to read-out.

gene | pool no. | mean correlation with KSR1 profile | mean distance from KSR1 profile | KSR1 correlation, replicate 1 | KSR1 correlation, replicate 2 | KSR1 correlation, replicate 3
PGC | 1 | -0.581 | 3.02 | -0.463 | -0.529 | -0.514
SLC25A37 | 1 | -0.454 | 2.76 | -0.349 | -0.434 | -0.552
IFI30 | 1 | -0.458 | 1.97 | -0.293 | -0.635 | -0.44
ZNF71 | 1 | -0.593 | 2.77 | -0.77 | -0.257 | -0.393
RNF213 | 1 | -0.556 | 7.4 | -0.492 | 0.0231 | 0.124
RNF213 | 2 | -0.705 | 4.22 | -0.32 | -0.588 | -0.264
ZNF703 | 1 | -0.386 | 3.35 | -0.445 | -0.381 | -0.464
VAX1 | 1 | 0.455 | 1.86 | 0.401 | 0.454 | 0.524
CDK4 | 1 | 0.305 | 2 | 0.468 | 0.308 | -0.131
MYL7 | 1 | -0.626 | 2.76 | -0.675 | -0.552 | -0.666
CCNE1 | 1 | 0.445 | 1.71 | 0.562 | 0.455 | 0.154
TRPM3 | 1 | -0.221 | 2.17 | 0.0164 | -0.202 | -0.19
ELK1 | 1 | 0.19 | 2.09 | -0.547 | 0.542 | 0.375
SSTR3 | 1 | 0.679 | 1.29 | 0.629 | 0.627 | 0.81
RPL36A | 1 | -0.136 | 1.77 | -0.0767 | -0.353 | -0.0155
MMRN1 | 1 | -0.719 | 2.52 | -0.689 | -0.743 | -0.404
SH3BP5L | 1 | -0.0761 | 3.81 | -0.255 | -0.0948 | -0.146
SORCS3 | 1 | 0.455 | 2.54 | 0.467 | 0.51 | -0.0926
FLT3LG | 1 | 0.0125 | 2.35 | -0.243 | 0.152 | 0.101
PRKCSH | 1 | 0.361 | 1.75 | 0.66 | 0.325 | -0.058
HOXA4 | 1 | 0.341 | 1.62 | 0.542 | 0.397 | 0.215
NPTX2 | 1 | 0.784 | 1.21 | 0.805 | 0.89 | 0.754
IGF1 | 1 | -0.0631 | 1.34 | -0.131 | -0.0459 | 0.0383
MMP14 | 1 | -0.291 | 2.41 | -0.469 | -0.632 | 0.108
IL25 | 1 | -0.185 | 1.95 | -0.546 | 0.174 | -0.152
PRB3 | 1 | 0.0576 | 1.45 | 0.0376 | 0.288 | -0.115
OR2H2 | 1 | 0.487 | 1.5 | 0.534 | 0.431 | 0.561
CPE | 1 | -0.0207 | 3.13 | -0.0435 | -0.0584 | -0.0119
RAB14 | 1 | -0.236 | 1.83 | -0.514 | -0.0484 | 0.0834
ZNF692 | 1 | 0.547 | 1.57 | 0.475 | 0.558 | 0.432
NKX6-1 | 1 | 0.0487 | 2.47 | 0.237 | 0.215 | 0.0354
CARM1 | 1 | -0.187 | 3.2 | -0.131 | -0.135 | -0.342
APOLD1 | 1 | 0.16 | 2.62 | 0.0779 | 0.173 | 0.0243
ERGIC2 | 1 | 0.118 | 0.945 | -0.0915 | 0.35 | 0.401
